The supplement of paper PMC10849652
The list shows a part of the results.

By UniProt entry, the sequences of proteins in these tests, tags left out. Where a name states a change or a piece, a line headed by the entry shows the natural chain unless it says otherwise.
UniProt Q8IUR7, whole entry, looked up: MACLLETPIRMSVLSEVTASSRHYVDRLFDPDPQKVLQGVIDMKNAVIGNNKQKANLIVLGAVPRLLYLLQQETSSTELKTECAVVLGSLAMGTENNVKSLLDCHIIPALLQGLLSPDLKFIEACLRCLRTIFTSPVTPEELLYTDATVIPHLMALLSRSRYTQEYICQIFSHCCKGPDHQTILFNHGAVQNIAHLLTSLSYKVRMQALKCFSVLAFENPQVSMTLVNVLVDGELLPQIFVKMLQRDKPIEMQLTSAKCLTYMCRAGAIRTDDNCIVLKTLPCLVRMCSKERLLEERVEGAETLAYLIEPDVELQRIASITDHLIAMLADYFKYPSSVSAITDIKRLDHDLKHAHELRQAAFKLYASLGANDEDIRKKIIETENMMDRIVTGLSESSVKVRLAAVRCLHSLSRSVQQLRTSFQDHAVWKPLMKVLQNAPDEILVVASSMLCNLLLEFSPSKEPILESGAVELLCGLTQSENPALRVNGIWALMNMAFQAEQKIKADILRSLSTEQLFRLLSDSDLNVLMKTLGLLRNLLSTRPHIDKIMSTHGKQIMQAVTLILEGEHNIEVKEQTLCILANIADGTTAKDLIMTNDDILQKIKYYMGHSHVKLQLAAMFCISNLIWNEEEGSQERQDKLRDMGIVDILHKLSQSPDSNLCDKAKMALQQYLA
UniProt P84077: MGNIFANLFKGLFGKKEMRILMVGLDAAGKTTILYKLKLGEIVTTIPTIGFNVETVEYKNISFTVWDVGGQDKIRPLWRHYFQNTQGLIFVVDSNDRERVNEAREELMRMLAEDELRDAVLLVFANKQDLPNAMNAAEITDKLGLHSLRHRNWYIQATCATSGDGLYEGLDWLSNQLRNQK
UniProt O14791: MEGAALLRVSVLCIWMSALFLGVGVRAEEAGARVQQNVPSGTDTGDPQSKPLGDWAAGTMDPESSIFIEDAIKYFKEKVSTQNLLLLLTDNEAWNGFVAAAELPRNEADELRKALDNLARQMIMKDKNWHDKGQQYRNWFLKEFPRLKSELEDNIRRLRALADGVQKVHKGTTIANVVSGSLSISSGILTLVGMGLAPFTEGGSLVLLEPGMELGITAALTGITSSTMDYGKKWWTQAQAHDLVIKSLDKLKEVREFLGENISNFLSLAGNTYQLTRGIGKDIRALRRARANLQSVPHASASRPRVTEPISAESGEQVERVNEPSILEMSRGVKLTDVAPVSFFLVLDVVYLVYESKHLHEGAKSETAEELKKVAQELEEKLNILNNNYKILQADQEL
UniProt Q6ZUM4: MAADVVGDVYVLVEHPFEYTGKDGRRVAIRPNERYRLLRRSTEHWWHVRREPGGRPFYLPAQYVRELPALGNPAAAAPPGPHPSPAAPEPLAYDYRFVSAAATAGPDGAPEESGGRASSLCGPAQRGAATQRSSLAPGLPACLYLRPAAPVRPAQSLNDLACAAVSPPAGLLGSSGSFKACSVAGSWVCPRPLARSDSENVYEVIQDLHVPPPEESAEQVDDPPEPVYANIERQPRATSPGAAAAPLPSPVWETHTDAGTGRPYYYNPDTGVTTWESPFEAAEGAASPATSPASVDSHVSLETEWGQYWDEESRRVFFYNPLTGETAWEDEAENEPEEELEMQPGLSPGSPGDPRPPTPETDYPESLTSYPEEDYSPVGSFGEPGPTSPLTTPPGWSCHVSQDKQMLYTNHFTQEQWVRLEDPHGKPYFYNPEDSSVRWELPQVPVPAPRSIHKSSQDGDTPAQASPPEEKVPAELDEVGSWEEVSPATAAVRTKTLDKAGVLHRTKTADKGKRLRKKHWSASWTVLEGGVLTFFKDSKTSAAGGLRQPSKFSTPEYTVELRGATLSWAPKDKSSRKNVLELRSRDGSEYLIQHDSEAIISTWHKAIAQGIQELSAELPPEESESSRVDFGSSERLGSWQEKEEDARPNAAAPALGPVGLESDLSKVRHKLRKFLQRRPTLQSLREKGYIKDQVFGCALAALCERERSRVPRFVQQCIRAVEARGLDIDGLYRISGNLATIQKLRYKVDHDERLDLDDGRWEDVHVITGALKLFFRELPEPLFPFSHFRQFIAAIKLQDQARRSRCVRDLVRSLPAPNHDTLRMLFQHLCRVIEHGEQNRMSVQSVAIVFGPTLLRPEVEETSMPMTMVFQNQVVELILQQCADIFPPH
UniProt Q9P2N2: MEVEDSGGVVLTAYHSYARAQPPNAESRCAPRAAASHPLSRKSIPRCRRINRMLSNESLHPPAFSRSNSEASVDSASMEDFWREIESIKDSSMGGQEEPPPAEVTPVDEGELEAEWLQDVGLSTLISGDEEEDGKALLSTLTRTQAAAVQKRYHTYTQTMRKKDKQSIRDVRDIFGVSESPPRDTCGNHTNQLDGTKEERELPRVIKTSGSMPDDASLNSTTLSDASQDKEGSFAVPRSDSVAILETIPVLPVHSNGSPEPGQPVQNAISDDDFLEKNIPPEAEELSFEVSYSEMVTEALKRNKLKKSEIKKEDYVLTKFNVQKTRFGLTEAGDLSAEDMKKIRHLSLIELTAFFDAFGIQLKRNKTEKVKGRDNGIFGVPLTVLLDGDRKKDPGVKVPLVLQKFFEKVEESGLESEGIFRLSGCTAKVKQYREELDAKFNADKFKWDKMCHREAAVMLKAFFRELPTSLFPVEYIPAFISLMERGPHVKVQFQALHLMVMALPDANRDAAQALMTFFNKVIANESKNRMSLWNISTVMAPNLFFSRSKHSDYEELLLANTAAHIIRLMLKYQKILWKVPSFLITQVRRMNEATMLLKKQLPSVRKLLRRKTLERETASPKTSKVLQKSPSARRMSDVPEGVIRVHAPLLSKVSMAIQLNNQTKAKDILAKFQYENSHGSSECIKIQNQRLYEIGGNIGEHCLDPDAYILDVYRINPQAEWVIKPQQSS
UniProt P29374: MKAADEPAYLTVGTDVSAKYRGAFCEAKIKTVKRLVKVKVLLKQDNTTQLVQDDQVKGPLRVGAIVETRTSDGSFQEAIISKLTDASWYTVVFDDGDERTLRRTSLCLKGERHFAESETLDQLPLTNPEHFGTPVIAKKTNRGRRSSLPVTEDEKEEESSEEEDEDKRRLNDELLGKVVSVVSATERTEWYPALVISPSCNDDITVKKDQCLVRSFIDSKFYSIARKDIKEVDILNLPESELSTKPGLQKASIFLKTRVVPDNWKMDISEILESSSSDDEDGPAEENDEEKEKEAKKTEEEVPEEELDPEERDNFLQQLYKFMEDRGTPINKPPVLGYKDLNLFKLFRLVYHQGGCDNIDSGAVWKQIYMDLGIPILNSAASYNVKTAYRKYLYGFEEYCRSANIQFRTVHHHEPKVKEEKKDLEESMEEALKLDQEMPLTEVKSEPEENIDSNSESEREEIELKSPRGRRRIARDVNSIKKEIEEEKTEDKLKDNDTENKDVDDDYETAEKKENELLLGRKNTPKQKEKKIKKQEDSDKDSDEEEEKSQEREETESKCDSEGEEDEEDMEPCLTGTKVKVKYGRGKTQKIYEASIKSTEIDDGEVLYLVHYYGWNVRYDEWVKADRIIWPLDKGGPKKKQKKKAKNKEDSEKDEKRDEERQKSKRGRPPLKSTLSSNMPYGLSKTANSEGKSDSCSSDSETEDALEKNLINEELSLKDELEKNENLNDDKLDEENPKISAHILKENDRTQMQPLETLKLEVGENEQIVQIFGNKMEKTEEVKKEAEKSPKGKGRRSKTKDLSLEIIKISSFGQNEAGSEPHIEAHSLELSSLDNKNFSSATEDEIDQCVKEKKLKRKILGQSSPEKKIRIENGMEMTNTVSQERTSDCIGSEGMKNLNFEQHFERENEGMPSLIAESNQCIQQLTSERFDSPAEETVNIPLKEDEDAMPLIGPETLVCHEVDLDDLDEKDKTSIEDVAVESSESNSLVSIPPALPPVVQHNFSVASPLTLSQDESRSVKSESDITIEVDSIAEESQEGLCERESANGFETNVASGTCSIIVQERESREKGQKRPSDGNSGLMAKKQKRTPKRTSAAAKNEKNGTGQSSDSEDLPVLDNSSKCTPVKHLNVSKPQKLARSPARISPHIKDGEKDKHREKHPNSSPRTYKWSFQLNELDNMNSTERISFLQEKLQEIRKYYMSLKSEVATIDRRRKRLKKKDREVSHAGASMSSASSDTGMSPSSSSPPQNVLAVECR
UniProt P02749: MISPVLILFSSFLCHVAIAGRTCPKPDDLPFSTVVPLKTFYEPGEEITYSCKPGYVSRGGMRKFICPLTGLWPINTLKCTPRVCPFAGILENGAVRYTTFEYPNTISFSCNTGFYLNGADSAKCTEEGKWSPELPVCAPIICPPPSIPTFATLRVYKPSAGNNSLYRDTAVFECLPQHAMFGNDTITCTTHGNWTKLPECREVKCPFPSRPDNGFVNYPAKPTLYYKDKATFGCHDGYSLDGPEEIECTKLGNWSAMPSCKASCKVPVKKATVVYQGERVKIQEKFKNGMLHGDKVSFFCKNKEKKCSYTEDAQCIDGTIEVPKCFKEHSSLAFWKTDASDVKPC
UniProt Q2VPB7: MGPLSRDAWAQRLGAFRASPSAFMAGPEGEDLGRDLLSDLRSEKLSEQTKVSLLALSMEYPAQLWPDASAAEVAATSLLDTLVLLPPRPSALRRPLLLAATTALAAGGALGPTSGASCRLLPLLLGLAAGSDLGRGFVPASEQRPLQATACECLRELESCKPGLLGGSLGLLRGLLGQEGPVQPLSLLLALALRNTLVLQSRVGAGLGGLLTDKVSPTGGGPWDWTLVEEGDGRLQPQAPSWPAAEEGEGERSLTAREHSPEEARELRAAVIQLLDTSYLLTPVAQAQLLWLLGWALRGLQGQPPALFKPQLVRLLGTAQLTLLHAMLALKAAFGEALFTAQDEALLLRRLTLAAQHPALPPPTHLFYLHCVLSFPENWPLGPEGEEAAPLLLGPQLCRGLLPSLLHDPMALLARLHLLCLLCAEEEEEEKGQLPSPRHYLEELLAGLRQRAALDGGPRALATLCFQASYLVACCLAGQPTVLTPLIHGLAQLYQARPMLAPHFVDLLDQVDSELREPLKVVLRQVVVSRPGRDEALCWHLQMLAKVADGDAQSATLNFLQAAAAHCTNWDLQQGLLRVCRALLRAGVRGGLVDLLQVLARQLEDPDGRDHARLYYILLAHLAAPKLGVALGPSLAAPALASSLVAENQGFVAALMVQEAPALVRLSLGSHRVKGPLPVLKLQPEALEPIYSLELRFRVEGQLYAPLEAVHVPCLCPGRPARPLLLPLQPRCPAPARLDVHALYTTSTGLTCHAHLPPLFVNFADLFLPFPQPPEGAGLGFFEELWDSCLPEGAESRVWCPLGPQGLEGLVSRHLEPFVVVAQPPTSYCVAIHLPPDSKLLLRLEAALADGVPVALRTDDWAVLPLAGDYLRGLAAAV
UniProt P02656: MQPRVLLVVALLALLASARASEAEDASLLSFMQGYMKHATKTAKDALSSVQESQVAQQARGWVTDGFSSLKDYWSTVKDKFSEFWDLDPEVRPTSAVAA
UniProt P05067, whole entry, looked up: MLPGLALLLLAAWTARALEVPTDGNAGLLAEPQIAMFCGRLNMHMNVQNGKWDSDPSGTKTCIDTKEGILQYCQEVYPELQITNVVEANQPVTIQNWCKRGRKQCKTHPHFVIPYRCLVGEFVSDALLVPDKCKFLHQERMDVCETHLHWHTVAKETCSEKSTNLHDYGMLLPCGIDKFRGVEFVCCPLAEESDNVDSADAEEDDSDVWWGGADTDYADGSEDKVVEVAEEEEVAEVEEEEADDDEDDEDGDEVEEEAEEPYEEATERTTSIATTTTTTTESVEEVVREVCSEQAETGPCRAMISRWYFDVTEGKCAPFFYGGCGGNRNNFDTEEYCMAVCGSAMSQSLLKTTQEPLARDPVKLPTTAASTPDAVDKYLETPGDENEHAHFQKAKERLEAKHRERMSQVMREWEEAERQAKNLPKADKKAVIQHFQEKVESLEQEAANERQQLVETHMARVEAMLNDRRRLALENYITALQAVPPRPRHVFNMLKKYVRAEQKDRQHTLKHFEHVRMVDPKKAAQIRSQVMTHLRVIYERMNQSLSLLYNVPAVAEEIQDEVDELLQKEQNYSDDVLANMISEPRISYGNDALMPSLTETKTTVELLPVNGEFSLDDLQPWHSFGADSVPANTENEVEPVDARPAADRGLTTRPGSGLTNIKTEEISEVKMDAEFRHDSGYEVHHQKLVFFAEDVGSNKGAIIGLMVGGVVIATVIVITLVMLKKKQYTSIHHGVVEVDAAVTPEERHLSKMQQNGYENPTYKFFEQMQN
UniProt P05090: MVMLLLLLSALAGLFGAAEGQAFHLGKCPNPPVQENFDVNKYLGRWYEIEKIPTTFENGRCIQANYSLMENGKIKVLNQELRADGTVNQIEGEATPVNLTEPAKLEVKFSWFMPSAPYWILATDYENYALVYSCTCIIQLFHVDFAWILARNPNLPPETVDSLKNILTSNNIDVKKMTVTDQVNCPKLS
UniProt Q9H0F7: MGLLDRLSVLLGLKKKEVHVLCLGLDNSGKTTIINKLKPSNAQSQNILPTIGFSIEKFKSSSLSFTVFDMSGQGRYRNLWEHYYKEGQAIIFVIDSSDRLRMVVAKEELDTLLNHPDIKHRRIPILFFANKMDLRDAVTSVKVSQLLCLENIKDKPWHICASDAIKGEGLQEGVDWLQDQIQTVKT

Columns and labels:
Assay in all cases: log2 fold change, soluble protein after heating vs DMSO (PISA); higher = thermal stabilisation; K562 lysate, 10 uM; active = over 0.2 and 3.5 SD of the protein, either way, in both replicates (recomputed)
[1] = compound: C/C(=N\NC(=O)C1=CC(=CC=C1)S(=O)(=O)N2CCOCC2)/C3=C(C=CC(=C3)Cl)O
Procedure, shortened: (§1)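 Values give the log-two fold change in thermal stability against solvent controls, from duplicates. Crude K562 extract at 1 mg/mL protein, made by dounce homogenisation in PBS pH 7.4 with 1 mM MgCl2, was treated with 10 μM compound for 30 min. After 3 min heating across 48°C-58°C, aliquots were pooled, adjusted to 0.5% NP-40 at 4°C and centrifuged at 21,000xg for 90 min. The supernatant was measured by TMTpro 16plex LC-MS/MS with channel sums equalised.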

[2] = compound: C1=CC2=C(C=CC(=C2)/C=C\3/C(=O)NC(=NCC4=CC=CS4)S3)N=C1
Procedure, shortened: as §1

[3] = compound: C1=CC=C2C(=C1)C3=NNC4=CC=CC(=C43)C2=O
Procedure, shortened: as §1

erlotinib = compound: C#Cc1cccc(Nc2ncnc3cc(OCCOC)c(OCCOC)cc23)c1 [erlotinib]
Procedure, shortened: as §1

[4] = compound: C1=CC(=CC=C1C2=NC3=C(N2)C=C(C=C3)C(=O)N)OC4=CC=C(C=C4)Cl
Procedure, shortened: as §1

[5] = compound: C1=CC2=NC=CN=C2C=C1/C=C/3\C(=O)NC(=O)S3
Procedure, shortened: as §1

[6] = compound: C1=CC=C(C=C1)C2=NC(=C(N2)C3=CC=NC=C3)C4=CC(=C(C=C4)Cl)O
Procedure, shortened: as §1

[7] = compound: C1CCN(C1)C(=O)NC2=CC=CC(=C2)NC3=NC=C(C(=N3)NCCC4=CN=CN4)Br
Procedure, shortened: as §1

[8] = compound: C1CN(CCC1(CC2=CC=C(C=C2)Cl)N)C3=NC=NC4=C3C=CN4
Procedure, shortened: as §1

IRAK-1-4 Inhibitor I = compound: C1COCCN1CCN2C3=CC=CC=C3N=C2NC(=O)C4=CC(=CC=C4)[N+](=O)[O-] [IRAK-1-4 Inhibitor I]
Procedure, shortened: as §1

Measured: log2 fold change

ARMC7 (UniProt Q9H6L4)
inactive: [1] -0.2 | [2] 0.415 | [3] 0.104

APBA1 (UniProt Q02410)
inactive: erlotinib 0.053 | [4] -0.01 | [5] 0.123 | [6] 0.146 | [7] -0.033 | [8] -0.017 | IRAK-1-4 Inhibitor I -0.04

ARHGEF40 (UniProt Q8TER5)
inactive: erlotinib -0.023 | [4] 0.084 | [6] 0.086 | IRAK-1-4 Inhibitor I -0.028

APPBP2 (UniProt Q92624)
inactive: erlotinib 0.091 | [4] -0.036 | [5] 0.139 | [6] -0.021 | IRAK-1-4 Inhibitor I -0.023

ART4 (UniProt Q93070)
inactive: [1] -0.05 | [2] 0.026 | [5] -0.028 | [3] 0.044 | [7] -0.017 | [8] 0.007

ARAP3 (UniProt Q8WWN8)
inactive: erlotinib 0.047 | [4] -0.087 | [7] 0.029 | [8] -0.148

ARMC8 isoform 6 (UniProt Q8IUR7)
inactive: erlotinib -0.088 | [4] -0.009

ARMC8 (UniProt C9JAA7)
inactive: [7] 0.169 | [8] -0.243

ARHGAP22 isoform 2 (UniProt Q7Z5H3)
inactive: erlotinib 0.068 | [4] 0.14 | [6] 0.011 | [7] -0.05 | [8] 0.014 | IRAK-1-4 Inhibitor I 0.025

ARL6IP4 isoform 7 (UniProt Q66PJ3)
inactive: [5] -0.157

ARFIP1 isoform 2 (UniProt P53367)
inactive: [1] 0 | [2] -0.045 | [5] -0.026 | [6] 0.034 | [3] -0.216 | [7] -0.012 | [8] -0.028 | IRAK-1-4 Inhibitor I -0.02

ARF1 (UniProt P84077)
inactive: erlotinib 0.036 | [4] -0.087 | [6] -0.037 | IRAK-1-4 Inhibitor I 0.108

APOL1 isoform 2 (UniProt O14791)
inactive: [7] 0.084 | [8] 0.09

ARHGAP27 (UniProt Q6ZUM4)
inactive: [1] -0.087 | [2] -0.1 | [5] 0.163 | [3] 0.066

ARHGAP28 (UniProt Q9P2N2)
inactive: erlotinib -0.001 | [4] 0.135 | [5] 0.021

ARRDC3 (UniProt Q96B67)
inactive: erlotinib 0.024 | [4] 0.012

ARID4A (UniProt P29374)
inactive: erlotinib 0.023 | [1] 0.022 | [4] -0.003 | [2] 0.032 | [6] 0.057 | [3] -0.044 | IRAK-1-4 Inhibitor I 0.169

ARL4A (UniProt P40617)
inactive: [7] -0.021 | [8] -0.105

AP5S1 (UniProt Q9NUS5)
inactive: erlotinib 0.108 | [4] 0.344 | [6] 0.006 | [7] 0.054 | [8] 0.146 | IRAK-1-4 Inhibitor I -0.044

ARHGEF16 (UniProt Q5VV41)
inactive: erlotinib -0.015 | [4] -0.027 | [7] -0.453 | [8] 0.062

ASB1 (UniProt Q9Y576)
inactive: [1] -0.315 | [2] 0.056 | [5] 0.068 | [6] 0.034 | [3] 0.015 | [7] -0.14 | [8] 0.344 | IRAK-1-4 Inhibitor I 0.008

API5 isoform 1 (UniProt Q9BZZ5)
inactive: [6] 0.048 | IRAK-1-4 Inhibitor I 0

APOH (UniProt P02749)
inactive: [5] -0.022

ARMC10 isoform 2 (UniProt Q8N2F6)
inactive: [6] 0.051 | [7] 0.185 | [8] 0.112 | IRAK-1-4 Inhibitor I 0.063

AP5B1 (UniProt Q2VPB7)
inactive: erlotinib 0.006 | [4] -0.05 | [5] -0.069 | [6] 0.014 | [7] 0.073 | [8] 0.046 | IRAK-1-4 Inhibitor I 0.03

APOC3 (UniProt P02656)
inactive: [1] 0.057 | [2] 0.128 | [3] 0.038 | [7] 0.332 | [8] -0.126

ARID2 (UniProt Q68CP9)
inactive: [1] 0.005 | [2] -0.018 | [5] 0.047 | [6] 0.178 | [3] -0.016 | [7] -0.052 | [8] -0.014 | IRAK-1-4 Inhibitor I 0.067

ARHGAP24 (UniProt Q8N264)
inactive: erlotinib 0.068 | [1] -0.146 | [4] -0.036 | [2] 0.098 | [3] 0.024 | [7] -0.036 | [8] -0.057

Two entries picked at random from those above:
ARMC10 isoform 2 (UniProt Q8N2F6)
inactive: [6] 0.051 | [7] 0.185 | [8] 0.112 | IRAK-1-4 Inhibitor I 0.063

ARHGAP24 (UniProt Q8N264)
inactive: erlotinib 0.068 | [1] -0.146 | [4] -0.036 | [2] 0.098 | [3] 0.024 | [7] -0.036 | [8] -0.057

Next part.

APP (UniProt P05067)
inactive: erlotinib -0.082 | [4] 0.078 | [5] -0.112 | [7] -0.014 | [8] -0.052

APH1A (UniProt Q96BI3)
inactive: erlotinib 0.036 | [4] -0.011 | [5] -0.035 | [7] 0.054 | [8] 0.03

APOD (UniProt P05090)
inactive: [7] 0.165 | [8] -0.125

ARHGAP12 isoform 3 (UniProt Q8IWW6)
inactive: [1] -0.158 | [2] -0.083 | [3] 0.047

ARHGEF2 (UniProt V9GYF0)
inactive: [1] -0.056 | [2] -0.125 | [6] 0.012 | [3] 0.078 | [7] -0.009 | [8] -0.058 | IRAK-1-4 Inhibitor I 0.062

ARHGEF12 isoform 2 (UniProt Q9NZN5)
inactive: [7] -0.104 | [8] 0.038

ARV1 (UniProt Q9H2C2)
inactive: [1] 0.021 | [2] 0.01 | [5] 0.07 | [6] -0.059 | [3] 0.005 | [7] 0.168 | [8] 0.072 | IRAK-1-4 Inhibitor I -0.014

ARHGAP15 (UniProt Q53QZ3)
inactive: [7] 0.049 | [8] 0.149

ARL6IP4 isoform 4 (UniProt Q66PJ3)
inactive: [1] 0.138 | [2] 0.048 | [3] 0.018

ARL6 isoform 2 (UniProt Q9H0F7)
inactive: erlotinib -0.103 | [4] -0.302

ART3 (UniProt Q13508)
inactive: [6] -0.174 | IRAK-1-4 Inhibitor I 0.073

ARL5A (UniProt Q9Y689)
inactive: [1] 0.076 | [2] -0.037 | [6] -0.012 | [3] -0.075 | [7] 0 | [8] -0.008 | IRAK-1-4 Inhibitor I 0
